# Measured values as given in the supplement of paper PMC12823440, “Inhibitors supercharge kinase turnover through native proteolytic circuits” (Nature, 2025).
# Sequences of proteins named here, by UniProt entry; tags and fusion partners are left off. A change or cut given only in a name is not applied to a line headed by its entry.
# UniProt P50613: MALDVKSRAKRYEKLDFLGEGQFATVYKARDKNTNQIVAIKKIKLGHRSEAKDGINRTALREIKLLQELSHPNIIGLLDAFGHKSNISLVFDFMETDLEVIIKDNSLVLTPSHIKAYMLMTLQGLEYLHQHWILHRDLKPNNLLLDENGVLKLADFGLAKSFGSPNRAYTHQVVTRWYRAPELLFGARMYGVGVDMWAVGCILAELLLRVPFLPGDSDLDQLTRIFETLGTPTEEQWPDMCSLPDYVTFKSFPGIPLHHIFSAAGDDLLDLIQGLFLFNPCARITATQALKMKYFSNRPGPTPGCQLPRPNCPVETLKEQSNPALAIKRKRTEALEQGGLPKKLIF
# UniProt P50750, whole entry: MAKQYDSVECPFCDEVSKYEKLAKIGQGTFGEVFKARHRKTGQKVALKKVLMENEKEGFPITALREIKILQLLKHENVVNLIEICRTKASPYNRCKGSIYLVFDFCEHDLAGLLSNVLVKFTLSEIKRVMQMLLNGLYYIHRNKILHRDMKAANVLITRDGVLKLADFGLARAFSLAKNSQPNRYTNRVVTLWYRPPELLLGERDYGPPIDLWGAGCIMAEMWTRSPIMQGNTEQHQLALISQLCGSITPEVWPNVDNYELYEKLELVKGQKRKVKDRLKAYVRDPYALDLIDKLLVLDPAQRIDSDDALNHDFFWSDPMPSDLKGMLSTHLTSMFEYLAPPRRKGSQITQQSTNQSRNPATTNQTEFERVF
# UniProt O96017, whole entry: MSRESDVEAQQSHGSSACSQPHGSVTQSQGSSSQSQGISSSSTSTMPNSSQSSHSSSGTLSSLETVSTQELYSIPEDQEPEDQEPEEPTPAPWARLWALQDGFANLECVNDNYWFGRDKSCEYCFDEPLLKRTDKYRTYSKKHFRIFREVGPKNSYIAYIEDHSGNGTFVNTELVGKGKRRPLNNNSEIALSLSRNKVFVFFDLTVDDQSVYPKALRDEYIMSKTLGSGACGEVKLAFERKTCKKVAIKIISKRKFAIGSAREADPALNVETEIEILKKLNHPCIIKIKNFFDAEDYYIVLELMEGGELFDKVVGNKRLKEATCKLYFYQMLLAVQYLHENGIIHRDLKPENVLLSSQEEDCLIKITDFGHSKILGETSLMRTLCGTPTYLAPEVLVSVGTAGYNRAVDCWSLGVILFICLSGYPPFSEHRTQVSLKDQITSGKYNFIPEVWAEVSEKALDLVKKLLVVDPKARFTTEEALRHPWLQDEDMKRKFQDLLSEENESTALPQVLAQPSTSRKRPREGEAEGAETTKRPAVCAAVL
# UniProt P41240: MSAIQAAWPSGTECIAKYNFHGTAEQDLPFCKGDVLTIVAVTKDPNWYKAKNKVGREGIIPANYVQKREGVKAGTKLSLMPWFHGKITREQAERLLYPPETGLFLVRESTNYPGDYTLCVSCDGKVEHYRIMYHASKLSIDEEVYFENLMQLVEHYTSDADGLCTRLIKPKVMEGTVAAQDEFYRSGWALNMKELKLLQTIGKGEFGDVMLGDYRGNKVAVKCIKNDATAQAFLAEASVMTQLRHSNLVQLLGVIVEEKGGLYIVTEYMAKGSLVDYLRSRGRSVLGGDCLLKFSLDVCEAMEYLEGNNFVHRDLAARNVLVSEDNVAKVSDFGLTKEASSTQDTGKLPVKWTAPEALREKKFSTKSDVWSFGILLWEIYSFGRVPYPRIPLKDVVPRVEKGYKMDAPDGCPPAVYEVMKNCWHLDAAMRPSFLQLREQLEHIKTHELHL
# UniProt P48729: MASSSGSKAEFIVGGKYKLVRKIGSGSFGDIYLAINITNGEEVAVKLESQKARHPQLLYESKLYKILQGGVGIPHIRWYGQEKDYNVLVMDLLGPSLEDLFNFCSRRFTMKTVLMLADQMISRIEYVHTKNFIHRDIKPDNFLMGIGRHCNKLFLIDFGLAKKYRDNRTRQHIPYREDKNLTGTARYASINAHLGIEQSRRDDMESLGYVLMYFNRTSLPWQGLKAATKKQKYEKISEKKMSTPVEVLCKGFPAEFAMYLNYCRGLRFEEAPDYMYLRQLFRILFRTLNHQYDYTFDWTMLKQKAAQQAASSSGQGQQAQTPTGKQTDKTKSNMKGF
# UniProt P48730: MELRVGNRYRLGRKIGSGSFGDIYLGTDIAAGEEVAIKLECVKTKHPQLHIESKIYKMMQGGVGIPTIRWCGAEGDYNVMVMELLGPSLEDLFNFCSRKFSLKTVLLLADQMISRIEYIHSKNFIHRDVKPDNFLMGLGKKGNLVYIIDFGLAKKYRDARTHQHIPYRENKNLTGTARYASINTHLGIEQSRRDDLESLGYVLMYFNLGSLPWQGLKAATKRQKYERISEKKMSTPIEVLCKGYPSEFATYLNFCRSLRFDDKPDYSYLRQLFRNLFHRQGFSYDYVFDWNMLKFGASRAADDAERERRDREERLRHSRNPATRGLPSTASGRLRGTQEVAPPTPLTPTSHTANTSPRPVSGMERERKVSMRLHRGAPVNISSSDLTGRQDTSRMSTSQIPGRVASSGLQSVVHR
# UniProt Q08345: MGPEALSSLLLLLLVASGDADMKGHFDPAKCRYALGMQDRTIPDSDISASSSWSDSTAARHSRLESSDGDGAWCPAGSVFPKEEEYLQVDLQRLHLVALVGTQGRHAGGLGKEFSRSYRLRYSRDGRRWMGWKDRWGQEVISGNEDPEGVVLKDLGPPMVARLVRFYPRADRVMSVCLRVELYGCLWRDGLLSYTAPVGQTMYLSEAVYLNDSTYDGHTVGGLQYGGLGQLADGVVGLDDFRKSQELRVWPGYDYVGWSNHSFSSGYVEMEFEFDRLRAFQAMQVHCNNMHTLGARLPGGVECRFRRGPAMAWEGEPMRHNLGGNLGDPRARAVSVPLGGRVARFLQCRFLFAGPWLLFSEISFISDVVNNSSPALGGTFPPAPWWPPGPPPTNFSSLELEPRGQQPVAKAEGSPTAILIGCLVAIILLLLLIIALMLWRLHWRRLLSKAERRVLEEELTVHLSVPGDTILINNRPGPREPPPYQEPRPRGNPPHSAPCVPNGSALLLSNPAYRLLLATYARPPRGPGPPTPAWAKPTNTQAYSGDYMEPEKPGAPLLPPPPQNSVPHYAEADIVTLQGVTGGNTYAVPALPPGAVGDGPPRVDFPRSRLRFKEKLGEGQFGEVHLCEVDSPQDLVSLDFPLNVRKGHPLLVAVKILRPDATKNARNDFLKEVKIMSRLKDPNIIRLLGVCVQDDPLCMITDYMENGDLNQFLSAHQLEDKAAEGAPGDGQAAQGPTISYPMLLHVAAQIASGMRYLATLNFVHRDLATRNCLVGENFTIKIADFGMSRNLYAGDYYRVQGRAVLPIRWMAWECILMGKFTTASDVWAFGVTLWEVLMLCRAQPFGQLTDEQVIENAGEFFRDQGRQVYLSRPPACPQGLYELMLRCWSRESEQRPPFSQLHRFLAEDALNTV
# UniProt Q9Y463, whole entry, looked up: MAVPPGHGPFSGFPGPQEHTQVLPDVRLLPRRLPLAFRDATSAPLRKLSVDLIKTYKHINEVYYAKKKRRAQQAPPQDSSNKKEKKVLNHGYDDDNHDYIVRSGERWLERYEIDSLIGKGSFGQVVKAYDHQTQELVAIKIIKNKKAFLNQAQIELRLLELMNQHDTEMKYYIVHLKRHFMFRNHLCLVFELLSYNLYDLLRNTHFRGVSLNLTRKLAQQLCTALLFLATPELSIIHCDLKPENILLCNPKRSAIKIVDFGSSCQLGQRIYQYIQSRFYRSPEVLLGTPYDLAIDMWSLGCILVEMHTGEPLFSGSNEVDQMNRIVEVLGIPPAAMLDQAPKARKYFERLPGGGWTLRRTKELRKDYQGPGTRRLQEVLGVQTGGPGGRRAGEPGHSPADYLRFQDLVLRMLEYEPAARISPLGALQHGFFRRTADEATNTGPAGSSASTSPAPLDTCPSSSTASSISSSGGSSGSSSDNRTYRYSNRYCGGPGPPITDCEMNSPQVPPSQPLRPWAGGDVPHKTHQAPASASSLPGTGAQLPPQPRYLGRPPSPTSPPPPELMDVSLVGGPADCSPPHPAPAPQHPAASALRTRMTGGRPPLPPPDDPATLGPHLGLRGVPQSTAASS
# UniProt Q92630: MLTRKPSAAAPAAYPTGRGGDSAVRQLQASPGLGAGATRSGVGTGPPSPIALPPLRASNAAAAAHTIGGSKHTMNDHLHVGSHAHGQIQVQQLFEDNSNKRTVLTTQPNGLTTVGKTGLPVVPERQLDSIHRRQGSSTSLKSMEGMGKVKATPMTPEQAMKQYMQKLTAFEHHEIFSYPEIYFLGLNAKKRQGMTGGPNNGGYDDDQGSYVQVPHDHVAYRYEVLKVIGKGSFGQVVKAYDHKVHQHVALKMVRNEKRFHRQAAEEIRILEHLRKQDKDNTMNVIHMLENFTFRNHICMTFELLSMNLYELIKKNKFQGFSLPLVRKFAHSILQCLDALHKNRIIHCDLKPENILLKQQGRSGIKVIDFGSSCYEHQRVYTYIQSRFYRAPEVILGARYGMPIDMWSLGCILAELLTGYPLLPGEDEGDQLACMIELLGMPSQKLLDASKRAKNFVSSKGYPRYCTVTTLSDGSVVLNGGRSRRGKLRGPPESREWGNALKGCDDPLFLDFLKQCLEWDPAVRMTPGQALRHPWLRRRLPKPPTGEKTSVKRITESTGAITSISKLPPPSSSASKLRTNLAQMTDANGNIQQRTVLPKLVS
# UniProt Q15303, whole entry R711C: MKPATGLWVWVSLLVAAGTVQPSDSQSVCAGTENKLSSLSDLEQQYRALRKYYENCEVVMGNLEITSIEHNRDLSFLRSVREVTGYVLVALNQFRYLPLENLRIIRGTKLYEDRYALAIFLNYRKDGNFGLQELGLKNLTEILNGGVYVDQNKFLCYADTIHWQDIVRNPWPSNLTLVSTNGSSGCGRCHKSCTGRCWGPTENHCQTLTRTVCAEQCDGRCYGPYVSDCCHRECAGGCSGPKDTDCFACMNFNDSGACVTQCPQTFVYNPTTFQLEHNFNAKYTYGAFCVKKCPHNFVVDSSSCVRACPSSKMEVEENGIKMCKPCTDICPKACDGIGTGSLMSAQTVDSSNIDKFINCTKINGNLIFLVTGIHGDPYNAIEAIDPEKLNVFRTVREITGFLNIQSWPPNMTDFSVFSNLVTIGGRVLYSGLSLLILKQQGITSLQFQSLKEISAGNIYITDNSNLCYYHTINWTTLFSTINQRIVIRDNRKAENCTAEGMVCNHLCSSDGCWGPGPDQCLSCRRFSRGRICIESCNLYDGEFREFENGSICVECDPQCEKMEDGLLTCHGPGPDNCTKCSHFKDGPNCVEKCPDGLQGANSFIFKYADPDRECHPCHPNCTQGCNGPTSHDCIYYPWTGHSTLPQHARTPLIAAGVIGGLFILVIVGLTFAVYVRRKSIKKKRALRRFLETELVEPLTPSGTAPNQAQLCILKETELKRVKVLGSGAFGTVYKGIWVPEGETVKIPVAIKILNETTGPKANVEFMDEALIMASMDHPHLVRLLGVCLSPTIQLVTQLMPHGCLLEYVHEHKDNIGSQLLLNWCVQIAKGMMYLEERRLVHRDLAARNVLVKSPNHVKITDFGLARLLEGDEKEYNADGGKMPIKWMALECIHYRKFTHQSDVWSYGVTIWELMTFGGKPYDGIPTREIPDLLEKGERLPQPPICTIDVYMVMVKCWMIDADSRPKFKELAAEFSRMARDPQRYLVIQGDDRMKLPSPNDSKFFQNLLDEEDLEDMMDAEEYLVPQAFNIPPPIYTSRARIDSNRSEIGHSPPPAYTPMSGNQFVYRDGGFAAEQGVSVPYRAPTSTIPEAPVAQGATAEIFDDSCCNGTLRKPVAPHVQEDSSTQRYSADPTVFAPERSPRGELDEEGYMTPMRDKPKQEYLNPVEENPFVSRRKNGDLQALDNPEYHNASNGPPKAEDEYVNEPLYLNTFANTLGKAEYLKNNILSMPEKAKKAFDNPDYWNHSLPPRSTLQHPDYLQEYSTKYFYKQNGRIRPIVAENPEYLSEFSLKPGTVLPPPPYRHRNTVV
# The list shows a part of the results. Hit calls seldom repeat between salt and free forms of one compound.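 Kinases were expressed as nanoluciferase fusions in K562 cells and luminescence was read every 4 h between 2 and 18 h as percent of control, DMSO set to 100% and a positive control to 0%. A time point counts as decreased when the signal drops significantly (2 sigma). The hit call is the authors' own, does not follow from the count of time points alone, and its rule is not shown.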
# Tests used:
# Assay in all cases: kinase-Nluc reporter destabilization hit call (1 = scored as downregulated) (binary); higher = compound decreases kinase abundance
# Conditions in all cases: K562; 2-18 h
# [1] = molecular target: CDK7 (UniProt P50613)
# [2] = molecular target: CDK9 (UniProt P50750)
# [3] = molecular target: CHEK2 (UniProt O96017)
# [4] = molecular target: CSF1R (UniProt P07333)
# [5] = molecular target: CSK (UniProt P41240)
# [6] = molecular target: CSNK1A1 (UniProt P48729)
# [7] = molecular target: CSNK1D (UniProt P48730)
# [8] = molecular target: DDR1 (UniProt Q08345)
# [9] = molecular target: DYRK1B (UniProt Q9Y463)
# [10] = molecular target: DYRK2 (UniProt Q92630)
# [11] = molecular target: EGFR (UniProt P00533)
# [12] = molecular target: EGFR_G719S (UniProt P00533)
# [13] = molecular target: EGFR_G719S_T790M (UniProt P00533)
# [14] = molecular target: EGFR_L718V (UniProt P00533)
# [15] = molecular target: EGFR_L858R (UniProt P00533)
# [16] = molecular target: EGFR_L861Q (UniProt P00533)
# [17] = molecular target: EGFR_T790M (UniProt P00533)
# [18] = molecular target: EPHA2 (UniProt P29317)
# [19] = molecular target: ERBB3 (UniProt P21860)
# [20] = molecular target: ERBB4_R711C (clone: ERBB4_mut) (UniProt Q15303)
Compound,kinase-Nluc reporter destabilization hit call [1],kinase-Nluc reporter destabilization hit call [2],kinase-Nluc reporter destabilization hit call [3],kinase-Nluc reporter destabilization hit call [4],kinase-Nluc reporter destabilization hit call [5],kinase-Nluc reporter destabilization hit call [6],kinase-Nluc reporter destabilization hit call [7],kinase-Nluc reporter destabilization hit call [8],kinase-Nluc reporter destabilization hit call [9],kinase-Nluc reporter destabilization hit call [10],kinase-Nluc reporter destabilization hit call [11],kinase-Nluc reporter destabilization hit call [12],kinase-Nluc reporter destabilization hit call [13],kinase-Nluc reporter destabilization hit call [14],kinase-Nluc reporter destabilization hit call [15],kinase-Nluc reporter destabilization hit call [16],kinase-Nluc reporter destabilization hit call [17],kinase-Nluc reporter destabilization hit call [18],kinase-Nluc reporter destabilization hit call [19],kinase-Nluc reporter destabilization hit call [20]
COc1cc(N2CCC(O)CC2)ccc1Nc1nc(Nc2ccccc2S(=O)(=O)C(C)C)c2[nH]cnc2n1 (10 µM),inactive: 0,inactive: 0,inactive: 0,inactive: 0,inactive: 0,inactive: 0,inactive: 0,inactive: 0,inactive: 0,inactive: 0,inactive: 0,inactive: 0,inactive: 0,inactive: 0,inactive: 0,inactive: 0,inactive: 0,inactive: 0,inactive: 0,inactive: 0
Cc1nc(NC(=O)N2CCC[C@H]2C(N)=O)sc1-c1ccnc(C(C)(C)C(F)(F)F)c1 [Alpelisib] (2.5 µM),inactive: 0,inactive: 0,inactive: 0,inactive: 0,inactive: 0,inactive: 0,inactive: 0,inactive: 0,inactive: 0,inactive: 0,inactive: 0,inactive: 0,inactive: 0,inactive: 0,inactive: 0,inactive: 0,inactive: 0,inactive: 0,inactive: 0,inactive: 0
Cn1cnc2c(F)c(Nc3ccc(Br)cc3F)c(C(=O)NOCCO)cc21 [Binimetinib] (10 µM),inactive: 0,inactive: 0,inactive: 0,inactive: 0,inactive: 0,inactive: 0,inactive: 0,inactive: 0,inactive: 0,inactive: 0,inactive: 0,inactive: 0,inactive: 0,inactive: 0,inactive: 0,inactive: 0,inactive: 0,inactive: 0,inactive: 0,inactive: 0
NC(=O)c1cnc(N[C@@H]2CCCC[C@@H]2N)nc1Nc1cccc(-n2nccn2)c1 (2.5 µM),inactive: 0,inactive: 0,inactive: 0,inactive: 0,inactive: 0,inactive: 0,inactive: 0,active: 1,inactive: 0,inactive: 0,inactive: 0,inactive: 0,inactive: 0,inactive: 0,inactive: 0,inactive: 0,inactive: 0,inactive: 0,inactive: 0,inactive: 0
Nc1ccc(C(=O)Nc2cccc(-c3nc(N4CCOCC4)c4oc5ncccc5c4n3)c2)cn1 (10 µM),inactive: 0,inactive: 0,inactive: 0,inactive: 0,inactive: 0,inactive: 0,inactive: 0,inactive: 0,inactive: 0,active: 1,inactive: 0,inactive: 0,inactive: 0,inactive: 0,inactive: 0,inactive: 0,inactive: 0,inactive: 0,inactive: 0,inactive: 0
CC(C)(C)S(=O)(=O)c1cc2c(Nc3ccc4scnc4c3)ncnc2cc1OCCOP(=O)(O)O (2 µM),inactive: 0,inactive: 0,inactive: 0,inactive: 0,inactive: 0,inactive: 0,inactive: 0,inactive: 0,inactive: 0,inactive: 0,inactive: 0,inactive: 0,inactive: 0,inactive: 0,inactive: 0,inactive: 0,inactive: 0,inactive: 0,inactive: 0,inactive: 0
CN(C)CCOc1cc(-c2cn[nH]c2)ccc1NC(=O)C1COc2ccccc2O1 (stereo not given) (10 µM),inactive: 0,inactive: 0,inactive: 0,inactive: 0,inactive: 0,inactive: 0,inactive: 0,inactive: 0,inactive: 0,inactive: 0,inactive: 0,inactive: 0,inactive: 0,inactive: 0,inactive: 0,inactive: 0,inactive: 0,inactive: 0,inactive: 0,inactive: 0
CC(C)n1cnc2c(Nc3cccc(Cl)c3)nc(N[C@H]3CCCC[C@@H]3N)nc21 (2.5 µM),inactive: 0,inactive: 0,inactive: 0,inactive: 0,inactive: 0,inactive: 0,inactive: 0,inactive: 0,inactive: 0,inactive: 0,inactive: 0,inactive: 0,inactive: 0,inactive: 0,inactive: 0,inactive: 0,inactive: 0,inactive: 0,inactive: 0,inactive: 0
C=CC(=O)Nc1cccc(Oc2nc(Nc3ccc(N4CCN(C)CC4)cc3OC)ncc2Cl)c1 (10 µM),inactive: 0,inactive: 0,inactive: 0,inactive: 0,inactive: 0,inactive: 0,inactive: 0,inactive: 0,inactive: 0,inactive: 0,inactive: 0,inactive: 0,inactive: 0,inactive: 0,inactive: 0,inactive: 0,inactive: 0,inactive: 0,inactive: 0,inactive: 0
N#Cc1cc(-c2ccnc(Nc3ccc(N4CCOCC4)cc3)n2)ccc1OC1CCOCC1 (10 µM),inactive: 0,inactive: 0,inactive: 0,inactive: 0,inactive: 0,inactive: 0,inactive: 0,inactive: 0,inactive: 0,inactive: 0,inactive: 0,inactive: 0,inactive: 0,inactive: 0,inactive: 0,inactive: 0,inactive: 0,inactive: 0,inactive: 0,inactive: 0
CC(C)c1cc2c(c(O)c1O)[C@@]13CCCC(C)(C)[C@@H]1C[C@@H]2OC3=O [Carnosol] (2.5 µM),inactive: 0,inactive: 0,inactive: 0,inactive: 0,inactive: 0,inactive: 0,inactive: 0,inactive: 0,inactive: 0,inactive: 0,inactive: 0,inactive: 0,inactive: 0,inactive: 0,inactive: 0,inactive: 0,inactive: 0,inactive: 0,inactive: 0,inactive: 0
CCC(F)(F)c1cc(N2CCC(S(C)(=O)=O)CC2)nc2sc(C(N)=O)c(N)c12 (10 µM),inactive: 0,inactive: 0,inactive: 0,inactive: 0,inactive: 0,inactive: 0,inactive: 0,inactive: 0,inactive: 0,inactive: 0,inactive: 0,inactive: 0,inactive: 0,inactive: 0,inactive: 0,inactive: 0,inactive: 0,inactive: 0,inactive: 0,inactive: 0
Cc1ccc2c(NS(=O)(=O)c3ccccc3Cl)cccc2c1Oc1ncccc1-c1ccnc(N[C@H]2CCCNC2)n1 (2.5 µM),inactive: 0,inactive: 0,inactive: 0,inactive: 0,inactive: 0,inactive: 0,inactive: 0,inactive: 0,inactive: 0,inactive: 0,inactive: 0,inactive: 0,inactive: 0,inactive: 0,inactive: 0,inactive: 0,inactive: 0,inactive: 0,inactive: 0,inactive: 0
CNCCOc1ccccc1C1(Nc2nccn(-c3cc(C(=O)NC4CC4)cc(F)c3C)c2=O)CC1 (10 µM),inactive: 0,inactive: 0,inactive: 0,inactive: 0,inactive: 0,inactive: 0,inactive: 0,inactive: 0,inactive: 0,inactive: 0,inactive: 0,inactive: 0,inactive: 0,inactive: 0,inactive: 0,inactive: 0,inactive: 0,inactive: 0,inactive: 0,inactive: 0
O=c1cc(N2CCOCC2)oc2c(-c3cccc4c3sc3ccccc34)cccc12 (10 µM),inactive: 0,inactive: 0,inactive: 0,inactive: 0,inactive: 0,inactive: 0,inactive: 0,inactive: 0,inactive: 0,inactive: 0,inactive: 0,inactive: 0,inactive: 0,inactive: 0,inactive: 0,inactive: 0,inactive: 0,inactive: 0,inactive: 0,inactive: 0

# Reprinted at random: two records from the list.
Compound,kinase-Nluc reporter destabilization hit call [1],kinase-Nluc reporter destabilization hit call [2],kinase-Nluc reporter destabilization hit call [3],kinase-Nluc reporter destabilization hit call [4],kinase-Nluc reporter destabilization hit call [5],kinase-Nluc reporter destabilization hit call [6],kinase-Nluc reporter destabilization hit call [7],kinase-Nluc reporter destabilization hit call [8],kinase-Nluc reporter destabilization hit call [9],kinase-Nluc reporter destabilization hit call [10],kinase-Nluc reporter destabilization hit call [11],kinase-Nluc reporter destabilization hit call [12],kinase-Nluc reporter destabilization hit call [13],kinase-Nluc reporter destabilization hit call [14],kinase-Nluc reporter destabilization hit call [15],kinase-Nluc reporter destabilization hit call [16],kinase-Nluc reporter destabilization hit call [17],kinase-Nluc reporter destabilization hit call [18],kinase-Nluc reporter destabilization hit call [19],kinase-Nluc reporter destabilization hit call [20]
CC(C)n1cnc2c(Nc3cccc(Cl)c3)nc(N[C@H]3CCCC[C@@H]3N)nc21 (2.5 µM),inactive: 0,inactive: 0,inactive: 0,inactive: 0,inactive: 0,inactive: 0,inactive: 0,inactive: 0,inactive: 0,inactive: 0,inactive: 0,inactive: 0,inactive: 0,inactive: 0,inactive: 0,inactive: 0,inactive: 0,inactive: 0,inactive: 0,inactive: 0
CN(C)CCOc1cc(-c2cn[nH]c2)ccc1NC(=O)C1COc2ccccc2O1 (stereo not given) (10 µM),inactive: 0,inactive: 0,inactive: 0,inactive: 0,inactive: 0,inactive: 0,inactive: 0,inactive: 0,inactive: 0,inactive: 0,inactive: 0,inactive: 0,inactive: 0,inactive: 0,inactive: 0,inactive: 0,inactive: 0,inactive: 0,inactive: 0,inactive: 0
